Assay results published in the supplement of paper PMC10849652.
The list shows a part of the results.

The chains behind the UniProt entries cited, without tags or fusion partners. Where a name states a change or a piece, a line headed by the entry shows the natural chain unless it says otherwise.
UniProt Q14156: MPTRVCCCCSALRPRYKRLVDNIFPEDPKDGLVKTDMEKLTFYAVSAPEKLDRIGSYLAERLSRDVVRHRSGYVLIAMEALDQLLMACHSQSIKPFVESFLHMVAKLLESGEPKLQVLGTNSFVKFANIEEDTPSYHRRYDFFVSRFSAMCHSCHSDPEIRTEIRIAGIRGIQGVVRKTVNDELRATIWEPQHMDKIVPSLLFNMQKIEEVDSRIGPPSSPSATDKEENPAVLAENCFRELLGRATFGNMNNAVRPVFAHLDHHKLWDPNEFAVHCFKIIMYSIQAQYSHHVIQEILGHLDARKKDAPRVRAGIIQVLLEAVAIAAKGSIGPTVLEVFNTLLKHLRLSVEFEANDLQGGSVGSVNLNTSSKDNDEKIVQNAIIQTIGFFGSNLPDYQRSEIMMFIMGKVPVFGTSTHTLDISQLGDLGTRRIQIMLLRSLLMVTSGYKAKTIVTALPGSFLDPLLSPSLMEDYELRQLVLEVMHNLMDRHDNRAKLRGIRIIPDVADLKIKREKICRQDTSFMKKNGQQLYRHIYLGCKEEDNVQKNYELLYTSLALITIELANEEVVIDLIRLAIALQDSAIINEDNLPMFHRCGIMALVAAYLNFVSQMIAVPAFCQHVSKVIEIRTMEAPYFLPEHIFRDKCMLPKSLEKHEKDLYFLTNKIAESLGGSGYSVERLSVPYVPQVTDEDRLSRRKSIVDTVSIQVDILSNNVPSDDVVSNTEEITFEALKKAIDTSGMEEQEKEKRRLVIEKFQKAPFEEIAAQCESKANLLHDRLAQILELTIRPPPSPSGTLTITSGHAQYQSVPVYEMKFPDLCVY
UniProt Q9H8V3: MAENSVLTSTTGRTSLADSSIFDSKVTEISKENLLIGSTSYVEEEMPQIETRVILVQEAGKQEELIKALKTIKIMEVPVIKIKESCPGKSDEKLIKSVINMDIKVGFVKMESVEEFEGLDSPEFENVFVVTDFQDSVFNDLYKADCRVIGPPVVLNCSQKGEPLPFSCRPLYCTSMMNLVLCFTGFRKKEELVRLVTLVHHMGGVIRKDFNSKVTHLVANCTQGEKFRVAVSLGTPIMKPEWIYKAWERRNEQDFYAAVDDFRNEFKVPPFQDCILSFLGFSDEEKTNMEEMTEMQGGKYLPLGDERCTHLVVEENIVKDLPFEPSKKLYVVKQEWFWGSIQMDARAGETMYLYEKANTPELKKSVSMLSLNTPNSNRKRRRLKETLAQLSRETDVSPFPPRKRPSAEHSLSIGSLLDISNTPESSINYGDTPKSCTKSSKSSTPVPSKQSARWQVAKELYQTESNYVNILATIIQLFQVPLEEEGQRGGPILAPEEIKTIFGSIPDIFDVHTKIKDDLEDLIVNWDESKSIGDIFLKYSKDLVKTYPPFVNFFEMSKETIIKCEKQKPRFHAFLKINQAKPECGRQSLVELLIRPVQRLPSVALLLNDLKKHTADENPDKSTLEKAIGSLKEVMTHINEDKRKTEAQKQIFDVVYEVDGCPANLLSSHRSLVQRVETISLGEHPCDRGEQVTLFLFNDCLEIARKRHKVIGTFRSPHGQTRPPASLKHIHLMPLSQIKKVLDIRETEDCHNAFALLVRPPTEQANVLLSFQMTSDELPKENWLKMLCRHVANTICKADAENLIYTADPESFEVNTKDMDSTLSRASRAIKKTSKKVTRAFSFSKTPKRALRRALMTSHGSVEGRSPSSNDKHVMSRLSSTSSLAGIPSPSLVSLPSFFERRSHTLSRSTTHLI
UniProt Q05639, whole entry, looked up: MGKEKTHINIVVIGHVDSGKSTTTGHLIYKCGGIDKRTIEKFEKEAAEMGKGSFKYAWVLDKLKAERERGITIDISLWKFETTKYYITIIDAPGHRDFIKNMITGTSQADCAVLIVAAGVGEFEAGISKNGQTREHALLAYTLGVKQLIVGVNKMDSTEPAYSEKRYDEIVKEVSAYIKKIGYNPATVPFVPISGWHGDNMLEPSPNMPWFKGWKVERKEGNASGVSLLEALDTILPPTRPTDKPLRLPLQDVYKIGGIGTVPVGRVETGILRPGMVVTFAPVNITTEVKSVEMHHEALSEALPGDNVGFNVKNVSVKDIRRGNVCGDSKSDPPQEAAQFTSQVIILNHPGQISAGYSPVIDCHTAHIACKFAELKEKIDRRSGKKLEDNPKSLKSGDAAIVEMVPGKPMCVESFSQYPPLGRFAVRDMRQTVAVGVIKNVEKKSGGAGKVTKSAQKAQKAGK
UniProt Q15075: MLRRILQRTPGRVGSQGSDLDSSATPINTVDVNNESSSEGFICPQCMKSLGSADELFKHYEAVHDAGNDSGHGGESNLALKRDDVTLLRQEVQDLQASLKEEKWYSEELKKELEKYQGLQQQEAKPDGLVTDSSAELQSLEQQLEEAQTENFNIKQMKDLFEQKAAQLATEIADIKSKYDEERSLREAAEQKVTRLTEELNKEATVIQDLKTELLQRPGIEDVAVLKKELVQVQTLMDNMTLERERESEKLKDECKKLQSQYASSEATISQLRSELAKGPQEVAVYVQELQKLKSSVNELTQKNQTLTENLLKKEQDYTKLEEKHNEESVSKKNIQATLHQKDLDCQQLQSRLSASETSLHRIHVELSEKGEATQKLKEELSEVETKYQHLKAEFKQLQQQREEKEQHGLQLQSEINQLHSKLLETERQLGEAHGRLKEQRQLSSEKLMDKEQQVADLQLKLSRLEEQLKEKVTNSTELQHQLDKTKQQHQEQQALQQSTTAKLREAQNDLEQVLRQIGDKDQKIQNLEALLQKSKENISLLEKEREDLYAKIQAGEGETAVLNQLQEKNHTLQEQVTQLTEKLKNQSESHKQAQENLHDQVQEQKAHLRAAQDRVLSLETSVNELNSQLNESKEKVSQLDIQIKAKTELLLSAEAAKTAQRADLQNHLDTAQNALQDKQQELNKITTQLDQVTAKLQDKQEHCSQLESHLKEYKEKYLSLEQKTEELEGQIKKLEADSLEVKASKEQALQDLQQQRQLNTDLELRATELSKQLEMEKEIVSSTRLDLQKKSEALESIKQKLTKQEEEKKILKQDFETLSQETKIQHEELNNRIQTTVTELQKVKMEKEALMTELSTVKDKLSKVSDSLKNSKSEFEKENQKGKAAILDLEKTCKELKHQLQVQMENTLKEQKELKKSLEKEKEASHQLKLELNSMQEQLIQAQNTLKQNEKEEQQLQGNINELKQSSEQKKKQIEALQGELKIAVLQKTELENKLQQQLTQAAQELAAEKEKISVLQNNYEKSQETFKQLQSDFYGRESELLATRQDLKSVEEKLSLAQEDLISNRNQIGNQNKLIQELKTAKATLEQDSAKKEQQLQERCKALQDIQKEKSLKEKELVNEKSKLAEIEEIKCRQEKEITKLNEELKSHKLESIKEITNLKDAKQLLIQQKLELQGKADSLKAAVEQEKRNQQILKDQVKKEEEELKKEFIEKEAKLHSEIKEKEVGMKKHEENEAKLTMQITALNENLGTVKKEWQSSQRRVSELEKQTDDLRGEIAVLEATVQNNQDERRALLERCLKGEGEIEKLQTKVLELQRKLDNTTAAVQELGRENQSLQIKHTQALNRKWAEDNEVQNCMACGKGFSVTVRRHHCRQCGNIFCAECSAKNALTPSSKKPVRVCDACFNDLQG
UniProt Q9BZQ6: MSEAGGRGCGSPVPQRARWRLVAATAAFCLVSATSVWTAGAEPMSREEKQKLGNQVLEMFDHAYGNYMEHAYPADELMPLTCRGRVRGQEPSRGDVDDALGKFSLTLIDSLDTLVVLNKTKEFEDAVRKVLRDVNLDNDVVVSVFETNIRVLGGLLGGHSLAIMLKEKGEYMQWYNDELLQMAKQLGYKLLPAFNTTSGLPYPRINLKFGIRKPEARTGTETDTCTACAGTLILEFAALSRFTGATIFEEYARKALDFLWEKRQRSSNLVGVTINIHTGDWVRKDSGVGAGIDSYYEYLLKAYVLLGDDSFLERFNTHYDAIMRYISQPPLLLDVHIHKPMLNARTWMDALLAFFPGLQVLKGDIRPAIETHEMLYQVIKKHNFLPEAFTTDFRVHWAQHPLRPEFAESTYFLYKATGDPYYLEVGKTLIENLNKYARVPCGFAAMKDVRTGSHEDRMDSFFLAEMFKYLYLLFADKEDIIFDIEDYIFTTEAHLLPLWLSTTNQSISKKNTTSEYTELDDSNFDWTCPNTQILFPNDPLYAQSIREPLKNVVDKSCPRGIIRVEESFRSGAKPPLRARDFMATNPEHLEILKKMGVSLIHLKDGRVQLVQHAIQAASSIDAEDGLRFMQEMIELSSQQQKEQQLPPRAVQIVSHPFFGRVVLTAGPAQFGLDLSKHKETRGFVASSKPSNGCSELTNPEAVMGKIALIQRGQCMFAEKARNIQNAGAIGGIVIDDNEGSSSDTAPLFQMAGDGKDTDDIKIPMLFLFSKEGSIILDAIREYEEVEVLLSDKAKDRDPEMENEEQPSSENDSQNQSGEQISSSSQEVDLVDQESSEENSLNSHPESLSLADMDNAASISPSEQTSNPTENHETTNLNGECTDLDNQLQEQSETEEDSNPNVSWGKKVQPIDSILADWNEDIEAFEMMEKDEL
UniProt P63167, whole entry, looked up: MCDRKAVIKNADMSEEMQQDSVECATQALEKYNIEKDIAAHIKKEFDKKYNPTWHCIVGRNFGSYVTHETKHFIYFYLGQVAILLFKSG
UniProt Q92784, whole entry, looked up: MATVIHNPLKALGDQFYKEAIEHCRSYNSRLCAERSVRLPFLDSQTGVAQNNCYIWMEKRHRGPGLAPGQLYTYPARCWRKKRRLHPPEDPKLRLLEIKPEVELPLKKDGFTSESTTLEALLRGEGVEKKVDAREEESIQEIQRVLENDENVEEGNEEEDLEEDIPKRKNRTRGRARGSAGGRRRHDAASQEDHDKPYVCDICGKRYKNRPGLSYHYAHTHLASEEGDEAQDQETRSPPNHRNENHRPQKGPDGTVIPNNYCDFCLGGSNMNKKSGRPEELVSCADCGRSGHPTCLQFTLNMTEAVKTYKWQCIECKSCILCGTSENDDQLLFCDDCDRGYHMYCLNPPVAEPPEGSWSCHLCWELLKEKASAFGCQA
UniProt P41567, whole entry, looked up: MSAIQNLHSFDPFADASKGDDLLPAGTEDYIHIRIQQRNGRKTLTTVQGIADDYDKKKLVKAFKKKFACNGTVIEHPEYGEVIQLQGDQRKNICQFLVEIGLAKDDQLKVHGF
UniProt P63172, whole entry, looked up: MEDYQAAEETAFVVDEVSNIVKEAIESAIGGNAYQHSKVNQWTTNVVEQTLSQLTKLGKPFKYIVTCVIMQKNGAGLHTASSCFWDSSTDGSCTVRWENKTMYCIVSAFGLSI
UniProt Q6ZPD9: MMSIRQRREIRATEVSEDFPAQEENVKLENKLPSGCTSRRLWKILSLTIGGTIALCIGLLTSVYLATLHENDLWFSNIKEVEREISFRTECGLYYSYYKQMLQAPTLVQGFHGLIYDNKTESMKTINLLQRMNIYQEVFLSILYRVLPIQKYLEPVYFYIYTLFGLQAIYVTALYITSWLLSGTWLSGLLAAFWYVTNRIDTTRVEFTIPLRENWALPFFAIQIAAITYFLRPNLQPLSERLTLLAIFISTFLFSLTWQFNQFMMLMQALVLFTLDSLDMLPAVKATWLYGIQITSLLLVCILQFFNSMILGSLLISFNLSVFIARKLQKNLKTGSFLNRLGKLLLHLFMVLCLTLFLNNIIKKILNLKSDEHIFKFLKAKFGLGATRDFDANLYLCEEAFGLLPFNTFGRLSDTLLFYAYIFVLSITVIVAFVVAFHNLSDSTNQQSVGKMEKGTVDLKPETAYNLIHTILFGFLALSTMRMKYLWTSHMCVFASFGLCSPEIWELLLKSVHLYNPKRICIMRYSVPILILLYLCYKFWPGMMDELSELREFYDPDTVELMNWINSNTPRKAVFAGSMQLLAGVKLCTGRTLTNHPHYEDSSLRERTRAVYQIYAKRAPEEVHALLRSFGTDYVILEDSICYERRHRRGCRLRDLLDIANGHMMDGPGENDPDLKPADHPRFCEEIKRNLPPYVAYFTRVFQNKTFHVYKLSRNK
UniProt Q92782, whole entry, looked up: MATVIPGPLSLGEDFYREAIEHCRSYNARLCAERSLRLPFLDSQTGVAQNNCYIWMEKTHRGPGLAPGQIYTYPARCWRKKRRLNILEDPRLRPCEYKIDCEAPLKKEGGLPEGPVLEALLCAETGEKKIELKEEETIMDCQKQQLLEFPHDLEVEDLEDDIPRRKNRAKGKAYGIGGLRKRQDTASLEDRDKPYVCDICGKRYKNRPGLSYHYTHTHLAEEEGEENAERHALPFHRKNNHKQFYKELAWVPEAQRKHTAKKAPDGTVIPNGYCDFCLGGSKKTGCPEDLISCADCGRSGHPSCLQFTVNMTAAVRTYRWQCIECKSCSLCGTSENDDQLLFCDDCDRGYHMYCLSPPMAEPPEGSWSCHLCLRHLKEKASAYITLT
UniProt Q15125: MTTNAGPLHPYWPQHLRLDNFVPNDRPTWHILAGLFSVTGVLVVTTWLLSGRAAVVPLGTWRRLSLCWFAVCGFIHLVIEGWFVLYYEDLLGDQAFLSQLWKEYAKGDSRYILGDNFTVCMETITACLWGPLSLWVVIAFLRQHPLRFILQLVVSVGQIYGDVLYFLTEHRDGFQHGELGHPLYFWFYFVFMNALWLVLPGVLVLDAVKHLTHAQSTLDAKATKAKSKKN

Experiments:
Test in all cases: log2 fold change, soluble protein after heating vs DMSO (PISA); higher = thermal stabilisation; K562 lysate, 10 uM; active = over 0.2 and 3.5 SD of the protein, either way, in both replicates (recomputed)
[1] = compound: C1=CC=C(C=C1)[C@H](COC2=CC3=C(C=C2)NC(=O)N3)NC(=O)C4=CC=CN(C4=O)CC5=CC(=C(C=C5)F)F
In short: (§1)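 Pellets of K562 cells were dounce-homogenised in PBS pH 7.4 with 1 mM MgCl2, and the crude extract was held at 1 mg/mL protein for a 30 min treatment with 10 μM compound. Aliquots were heated for 3 min over 48°C-58°C and pooled before NP-40 was added to 0.5% at 4°C. The supernatant from 21,000xg for 90 min was quantified by TMTpro 16plex LC-MS/MS with channel sums equalised. Values are reported from duplicates as log-two fold change in thermal stability relative to solvent controls.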

[2] = compound: CC1=C(SC2=C1C(=N[C@H](C3=NN=C(N32)C)CC(=O)N)C4=CC=C(C=C4)Cl)C
In short: as §1

[3] = compound: CC1=C2C(=CC=C1)N=C(N(C2=O)C3=CC=CC=C3C)CN4C=NC5=C(N=CN=C54)N
In short: as §1

[4] = compound: Cc1sc2c(c1C)C(c1ccc(Cl)cc1)=N[C@@H](CC(=O)OC(C)(C)C)c1nnc(C)n1-2
In short: as §1

[5] = compound: c1ccc([C@@H]2C[C@H]2NC2CCNCC2)cc1
In short: as §1

Measured: log2 fold change

EFR3A (UniProt Q14156)
inactive: [1] -0.196 | [2] 0.133 | [3] 0.031 | [4] -0.018 | [5] 0.129

EARS2 (UniProt Q5JPH6)
inactive: [1] -0.013 | [2] -0.019 | [3] 0.037 | [4] -0.006 | [5] 0.044

EEF1A1P5 (UniProt Q5VTE0)
inactive: [1] 0.006 | [2] 0.011 | [3] 0.004 | [4] -0.067 | [5] -0.036

EHBP1L1 (UniProt Q8N3D4)
inactive: [1] 0.002 | [2] 0.004 | [3] 0.009 | [4] -0.009 | [5] -0.01

DPF2 (UniProt Q92785)
inactive: [1] -0.011 | [2] 0.02 | [3] -0.031 | [4] 0.079 | [5] 0.032

DTYMK (UniProt P23919)
inactive: [1] -0.041 | [2] 0.014 | [3] -0.029 | [4] -0.096 | [5] 0.098

ECT2 (UniProt Q9H8V3)
inactive: [1] 0.014 | [2] 0.014 | [3] 0.065 | [4] 0.03 | [5] -0.033

EEF1A2 (UniProt Q05639)
inactive: [1] -0.02 | [2] -0.001 | [3] 0.009 | [4] 0.016 | [5] 0.017

DTX3L (UniProt Q8TDB6)
inactive: [1] 0.039 | [2] -0.02 | [3] -0.051 | [4] -0.027 | [5] -0.081

EAPP (UniProt Q56P03)
inactive: [1] 0.008 | [2] 0.048 | [3] 0.137 | [4] 0.029 | [5] -0.079

DXO (UniProt O77932)
inactive: [1] -0.074 | [2] 0.13 | [3] 0.035 | [4] 0.011 | [5] 0.108

EEA1 (UniProt Q15075)
inactive: [1] 0.007 | [2] -0.01 | [3] -0.01 | [4] -0.019 | [5] 0.013

EDEM3 (UniProt Q9BZQ6)
inactive: [1] -0.053 | [2] 0.019 | [3] -0.004 | [4] -0.008 | [5] 0.017

DYNLL1 (UniProt P63167)
inactive: [1] 0.016 | [2] -0.057 | [3] 0.02 | [4] -0.01 | [5] -0.051

DUT (UniProt H0YMP1)
inactive: [1] -0.232 | [2] 0.259

EEF1D isoform 3 (UniProt P29692)
inactive: [1] -0.068 | [2] 0.113

EEF2 (UniProt P13639)
inactive: [1] -0.008 | [2] -0.008 | [3] -0.006 | [4] 0.007 | [5] 0.005

EDC3 (UniProt Q96F86)
inactive: [1] 0.036 | [2] 0 | [3] 0.028 | [4] 0.031 | [5] 0.008

DPF3 isoform 3 (UniProt Q92784)
inactive: [1] -0.064 | [2] 0.165

EIF1 (UniProt P41567)
inactive: [1] 0.146 | [2] -0.034 | [3] -0.031 | [4] -0.035 | [5] -0.114

DYNLT1 (UniProt P63172)
inactive: [1] 0.037 | [2] -0.037 | [3] 0.012 | [4] 0.032 | [5] -0.123

Two entries picked at random from those above:
EFR3A (UniProt Q14156)
inactive: [1] -0.196 | [2] 0.133 | [3] 0.031 | [4] -0.018 | [5] 0.129

EEA1 (UniProt Q15075)
inactive: [1] 0.007 | [2] -0.01 | [3] -0.01 | [4] -0.019 | [5] 0.013

Next entries:

DPY19L3 (UniProt Q6ZPD9)
inactive: [1] 0.183 | [2] -0.131 | [3] -0.106

DPF1 isoform 2 (UniProt Q92782)
inactive: [1] 0.058 | [2] 0.093 | [3] -0.081 | [4] 0.124

EBP (UniProt Q15125)
inactive: [1] -0.011 | [2] -0.061 | [3] 0.022 | [4] 0.09 | [5] -0.141

ECHDC3 (UniProt Q96DC8)
inactive: [1] 0.132 | [2] -0.061 | [3] -0.203 | [4] -0.013 | [5] -0.101

DROSHA (UniProt Q9NRR4)
inactive: [1] -0.113 | [2] 0.158 | [3] -0.004 | [4] -0.11 | [5] 0.077
